# Source: patent CN113234157A
# These are yes or no findings as the source states them, for the method shown. Some binding calls cover weakened binding; strength is not graded here.
# T1: 人IL33蛋白 (human) (UniProt O95760)
# T1 sequence (looked up): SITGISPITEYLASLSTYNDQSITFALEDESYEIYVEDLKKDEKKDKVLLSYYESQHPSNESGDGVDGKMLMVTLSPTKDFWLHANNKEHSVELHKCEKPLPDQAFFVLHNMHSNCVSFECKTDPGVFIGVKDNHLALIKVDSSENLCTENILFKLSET
# Biological target: T1, 人IL33蛋白 (human)
# Test: affinity for IL-33; method not detailed
row,binding,Binder
1,binds,"人源化抗人IL-33单克隆抗体D02-3P1hz31 (antibody, V domains shown) VH: EVQLVESGGGLVQPGGSLRLSCAASGFTFSSYYMSWVRQAPGKGLELVSAISSSGGSTYYPDTVKGRFTISRDNSKNTLYLQMGSLRAEDMAVYYCARHSYGNWYFDVWGQGTTVTVSS VL: EIVLTQSPATLSLSPGERATLSCRASESVDNYGISFMNWFQQKPGQAPRLLIYAASNQGSGIPARFSGSGSGTDFTLTISSLEPEDTAVYFCQQSKEVPWTFGQGTKVEIK"
2,binds,"人源化抗人IL-33单克隆抗体E01-14O9hz10 (antibody, V domains shown) VH: EVQLVESGGGLVQPGGSLRLSCATSGFTFTDYYMNWVRQAPGKGLEWVGFIRNKVNGYTTEYSASVKGRFTISRDNSKSILYLQMNSLRAEDTAVYYCARPYYGNYGWFPYWGQGTLVTVSS VL: EIVLTQSPATLSLSPGERATLSCRASESVDNYGISFMNWYQQKPGQAPRLLIYAASNQGSGIPARFSGSGSGTDFTLTISSLEPEDFAVYYCQQSKEVPYTFGGGTKVEIK"
3,binds,"人源化抗人IL-33单克隆抗体H02-8F11hz01 (antibody, V domains shown) VH: EVQLVQSGAEVKKPGASVKVSCKASGYTFTNYWIQWVRQAPGQGLEWMGEIFPGTGTSYYSEKFKGRVTMTTDTSTSTAYMELRSLRSDDTAVYYCARKHRGYGYGGAWIAYWGQGTLVTVSS VL: DIQLTQSPSSVSASVGDRVTITCSATSSVSSMHWHQQKPGKAPKLLIYRTSNLASGVPSRFSGSGSGTDYTLTISSLQPEDFATYYCHQWSSYPTFGGGTKVEIK"
